{"sequences": {"note": "Sequences of proteins named here, by UniProt entry; tags and fusion partners are left off.", "UniProt Q92830, whole entry, looked up": "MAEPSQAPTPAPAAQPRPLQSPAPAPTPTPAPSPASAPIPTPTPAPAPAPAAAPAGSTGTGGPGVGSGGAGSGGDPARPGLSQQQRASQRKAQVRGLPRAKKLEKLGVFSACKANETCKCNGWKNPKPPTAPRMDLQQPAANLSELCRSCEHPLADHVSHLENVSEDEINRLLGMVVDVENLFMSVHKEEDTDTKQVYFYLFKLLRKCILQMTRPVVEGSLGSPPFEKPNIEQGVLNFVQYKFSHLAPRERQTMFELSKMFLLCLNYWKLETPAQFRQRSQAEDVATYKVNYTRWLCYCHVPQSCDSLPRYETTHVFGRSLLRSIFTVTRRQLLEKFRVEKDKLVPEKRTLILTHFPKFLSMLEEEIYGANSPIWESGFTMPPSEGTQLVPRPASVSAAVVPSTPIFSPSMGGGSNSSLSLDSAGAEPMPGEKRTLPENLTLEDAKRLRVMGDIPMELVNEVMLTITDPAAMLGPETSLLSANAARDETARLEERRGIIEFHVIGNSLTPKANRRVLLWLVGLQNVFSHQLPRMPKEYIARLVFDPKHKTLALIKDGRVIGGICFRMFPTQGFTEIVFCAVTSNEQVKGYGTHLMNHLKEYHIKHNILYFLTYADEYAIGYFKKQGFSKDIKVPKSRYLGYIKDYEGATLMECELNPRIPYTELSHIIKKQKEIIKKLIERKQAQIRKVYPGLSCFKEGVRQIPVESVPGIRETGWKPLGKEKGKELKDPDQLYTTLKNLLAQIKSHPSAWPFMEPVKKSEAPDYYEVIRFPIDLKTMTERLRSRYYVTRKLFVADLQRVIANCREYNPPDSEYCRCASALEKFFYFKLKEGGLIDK"}, "source": "PubChem BioAssay AID504327", "about": "(National Center for Advancing Translational Sciences (NCATS), 2011)", "note": "The whole screen tested about 390,000 compounds, of which about 820 (0.21%) were called active. Inconclusive results, whose numbers are uncertain, are shown with a selection of clear calls. Calls come from the whole dose curve; as a rule, active = well fitted inhibition curve with a large enough effect; inconclusive = small, poorly fitted or top-dose-only effect, or another doubt; inactive = no such curve, though single readings can be large or run the other way. Potencies beside an inconclusive call are fits to weak or partial responses and may not hold up. % is set by controls: 0 for no effect and ±100 for the full control effect; potency is the fitted concentration of half-maximal effect.", "data": [{"target": "Histone acetyltransferase KAT2A (Homo sapiens) (UniProt Q92830)", "test": "qHTS Assay for Inhibitors of GCN5L2", "settings": "GCN5L2 HAT assay, ThioGlo1 CoA-SH fluorescence; activity change, negative = inhibition: at 58.9 µM (top of the series) unless noted", "how_it_was_run": "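Fluorescence readout, Ex340nm/Em540nm: ThioGlo1 (50uM final) reacts with free CoA thiol released as 20nM GCN5L2 acetylates H3(1-25) peptide (75uM) using acetyl-CoA (70uM). Compound and enzyme sat 15 min beforehand; 20 min room-temperature reaction.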", "values": [{"smiles": "CN(NC(=O)c1cccc(Cl)c1)c1nc(-c2ccccc2)nnc1C(F)(F)F", "Potency": "inconclusive: 0.794 µM [inhibitor, single point]"}, {"smiles": "CSc1ccc(C(=O)c2[nH]c(=O)[nH]c2C)cc1", "Potency": "inconclusive: 35.5 µM [inhibitor, single point]"}, {"smiles": "O=C(NCCc1ccccc1)C1CCCN1C(=O)Nc1ccccc1", "note": "(stereo unspecified)", "Potency": "inconclusive: 39.8 µM [inhibitor, single point]"}, {"smiles": "CCOc1ccc(N(CC(=O)NCCc2ccc(OC)cc2)S(C)(=O)=O)cc1", "Potency": "inconclusive: 39.8 µM [inhibitor, single point]"}, {"smiles": "Cc1ccc2c(c1)N(CC(=O)NCCCc1ccccc1)C(=O)c1cccnc1O2", "Potency": "active: 39.8 µM"}, {"smiles": "COc1ccc(NS(=O)(=O)c2ccc3c(c2)n(C)c(=O)n3C)cc1", "activity change, negative = inhibition": "inconclusive: -104% [inhibitor] [at 0.501 µM]"}, {"smiles": "COC(=O)c1ccc(Nc2ccc3nonc3c2[N+](=O)[O-])cc1", "Potency": "inconclusive: 35.5 µM [inhibitor, single point]"}, {"smiles": "COc1cccc(NC(=O)CN(C)C(=O)/C=C/c2cc(OC)ccc2OC)c1", "Potency": "inconclusive: 20 µM [inhibitor, single point]"}, {"smiles": "Cc1c(C(=O)N2CCCCCC2)nnn1-c1nonc1N", "Potency": "inconclusive: 6.31 µM [inhibitor, single point]"}, {"smiles": "CC(NC(=O)c1cccc(S(=O)(=O)N2CCN(Cc3ccccc3)CC2)c1)c1ccc(Cl)cc1", "note": "(stereo unspecified)", "Potency": "inconclusive: 0.141 µM [inhibitor, full curve, poor fit]"}, {"smiles": "COc1cc(/C=C2\\SC(=S)N(NC(=O)c3ccc(O)c(OC)c3)C2=O)ccc1O", "Potency": "inconclusive: 2.82 µM [inhibitor, full curve, poor fit]"}, {"smiles": "c1ccc(CSc2nnc3c(n2)OC(c2ccco2)Nc2ccccc2-3)cc1", "note": "(stereo unspecified)", "Potency": "inconclusive: 39.8 µM [inhibitor, single point]"}, {"smiles": "O=c1ccc(N=Nc2ccccc2)ccc1O", "activity change, negative = inhibition": "inactive: -1.22%"}, {"smiles": "Cc1ccc(S(=O)(=O)N2CCC(C(=O)NCCCOC(C)C)CC2)cc1", "Potency": "inconclusive: 39.8 µM [inhibitor, single point]"}, {"smiles": "O=c1[nH]sc2ccccc12", "Potency": "active: 8.91 µM"}, {"smiles": "Cc1c(NC(=O)COC(=O)c2cc(-c3cccc4ccccc34)nc3ccccc23)c(=O)n(-c2ccccc2)n1C", "activity change, negative = inhibition": "inactive: -9.02%"}, {"smiles": "NNC(=S)Nc1cccc(-c2n[nH]c(=S)o2)c1", "activity change, negative = inhibition": "inactive: -3.73%"}, {"smiles": "CC1=C/C(=N\\N=C2\\NC(=O)C(CC(=O)Nc3ccccc3F)S2)CC(C)(C)C1", "note": "(stereo unspecified)", "activity change, negative = inhibition": "inactive: 1.92%"}, {"smiles": "CC(CNCC1CCCO1)COc1cccc2ccccc12", "note": "(stereo unspecified)", "activity change, negative = inhibition": "inactive: 0.128%"}, {"smiles": "COC(=O)CCNS(=O)(=O)c1ccc2nsnc2c1", "activity change, negative = inhibition": "inactive: -11.2%"}, {"smiles": "N#Cc1ccc(-c2ccc(OCC(=O)NCCCN3CCCC3=O)cc2)cc1", "Potency": "inconclusive: 0.708 µM [inhibitor, single point]"}, {"smiles": "CCN(CC)S(=O)(=O)c1ccc(Cl)c(C(=O)NC2CCN(Cc3ccccc3)CC2)c1", "Potency": "inconclusive: 0.141 µM [inhibitor, full curve, poor fit]"}, {"smiles": "N#Cc1ccc(Cl)cc1NC(=O)CNCc1cccs1", "Potency": "inconclusive: 3.55 µM [inhibitor, partial curve]"}, {"smiles": "O=C(NCc1cc([N+](=O)[O-])ccc1O)c1cc(-c2ccncc2)nc2ccccc12", "Potency": "inconclusive: 39.8 µM [inhibitor, partial curve, poor fit]"}, {"smiles": "O=C(c1ccccc1)c1coc2ccc(O)c(Cl)c12", "Potency": "inconclusive: 22.4 µM [inhibitor, single point]"}, {"smiles": "N#CNC(=Nc1cccc(C(F)(F)F)c1)SCc1ccc(C(=O)O)cc1", "Potency": "inconclusive: 39.8 µM [inhibitor, single point]"}, {"smiles": "O=C(Nc1cccc(F)c1)c1cccc2c1C(=O)N(C1CCCCC1)C2", "Potency": "inconclusive: 44.7 µM [inhibitor, single point]"}, {"smiles": "CCN1C(=O)/C(=C2/Sc3ccc(OC)cc3N2C)SC1=Nc1cccc(O)c1", "Potency": "inconclusive: 25.1 µM [inhibitor, single point]"}, {"smiles": "O=C(CN1CCSCC1)N/N=C/c1ccc(F)c(F)c1", "activity change, negative = inhibition": "inconclusive: -86.5% [inhibitor] [at 0.501 µM]"}, {"smiles": "CCCCCC1(C)NC(=S)N(c2ccccc2)N1", "note": "(stereo unspecified)", "Potency": "inconclusive: 39.8 µM [inhibitor, single point]"}, {"smiles": "COc1ccc(N2CSC3=C(C#N)C(c4cc(OC)ccc4OC)CC(=O)N3C2)c(OC)c1", "note": "(stereo unspecified)", "Potency": "inconclusive: 31.6 µM [inhibitor, single point]"}, {"smiles": "O=C(c1ccccc1)c1cc(Cl)ccc1N1C(=O)C=CC1=O", "Potency": "inconclusive: 14.1 µM [inhibitor, partial curve]"}, {"smiles": "COc1cc2c(cc1NC(=O)C(C)Sc1nc3ccccc3n1C)oc1ccccc12", "note": "(stereo unspecified)", "Potency": "inconclusive: 8.91 µM [inhibitor, single point]"}, {"smiles": "C=CCc1c(O)c(CC)cc2c(C)cc(=O)oc12", "Potency": "inconclusive: 20 µM [inhibitor, single point]"}, {"smiles": "N#Cc1ccccc1CN1C(=O)S/C(=C/c2cccn2-c2cccc(C(=O)O)c2)C1=O", "Potency": "inconclusive: 3.55 µM [inhibitor, partial curve]"}, {"smiles": "Cc1ccc(NC(=S)NC(=O)c2cccs2)cc1F", "activity change, negative = inhibition": "inactive: -4.01%"}, {"smiles": "[O-][n+]1ccccc1SSc1cccc[n+]1[O-]", "Potency": "active: 14.1 µM"}, {"smiles": "COc1ccc(S(N)(=O)=O)cc1C(=O)NC1CCCc2ccccc21", "note": "(stereo unspecified)", "activity change, negative = inhibition": "inactive: 1.81%"}, {"smiles": "O=C(O)c1ccccc1-c1c2cc(Br)c(=O)c(Br)c-2oc2c(Br)c(O)c(Br)cc12", "Potency": "active: 22.4 µM"}, {"smiles": "C=CCC1NS(=O)(=O)OCC1C(C)C", "note": "(stereo unspecified)", "Potency": "inconclusive: 7.08 µM [inhibitor, single point]"}, {"smiles": "Cc1cc(C(=O)NNc2cc(Cl)ccc2Cl)no1", "Potency": "inconclusive: 7.08 µM [inhibitor, single point]"}, {"smiles": "COc1cccc(CN(C)Cc2cc(=O)oc3cc(O)c(Cl)cc23)c1", "activity change, negative = inhibition": "inactive: -20.1%"}, {"smiles": "CC(C)c1cc(C(=O)N/N=C/c2ccoc2)cs1", "Potency": "inconclusive: 0.141 µM [inhibitor, full curve, poor fit]"}, {"smiles": "Cc1ccc(C(=O)/C=C/c2ccc(Br)cc2)o1", "activity change, negative = inhibition": "inactive: -2.26%"}, {"smiles": "CCOC(=O)c1c(C)[nH]c(C)c1C(=O)COc1ncnc2ccccc12", "activity change, negative = inhibition": "inactive: -2.49%"}, {"smiles": "O=C(CCn1c(=O)c2cccn2c2ccc(F)cc21)NCCc1ccccc1", "Potency": "inactive"}, {"smiles": "Cc1ccc(N(CC(=O)NC2CC2)S(=O)(=O)c2ccccc2)c(C)c1", "activity change, negative = inhibition": "inactive: -4.61%"}, {"smiles": "CCOC(=O)C1CCN(c2nc(N)c3c(N)nc(SCC(=O)O)cc3c2C#N)CC1", "Potency": "inconclusive: 12.6 µM [inhibitor, partial curve, poor fit]"}, {"smiles": "NCCCC[C@H](NC(=O)CNC(=O)[C@@H]1CCCN1C(=O)[C@H](Cc1ccc(O)cc1)NC(=O)CN)C(=O)N[C@@H](Cc1ccccc1)C(=O)O", "activity change, negative = inhibition": "inactive: 0.0551%"}, {"smiles": "O=C1N=C(c2ccccc2)S/C1=C\\c1cccs1", "activity change, negative = inhibition": "inactive: -15.8%"}, {"smiles": "Cc1ccc(Nc2c(-c3cc(Br)ccc3F)nc3cc(C)ccn23)cc1", "activity change, negative = inhibition": "inactive: 7.48%"}, {"smiles": "CNC(=O)CN(c1ccc(Oc2ccccc2)cc1)S(=O)(=O)c1ccc(C)cc1", "Potency": "inconclusive: 7.08 µM [inhibitor, single point]"}, {"smiles": "CC(C)OCCCn1c(=O)c2ccccc2n2c(CCC(=O)O)nnc12", "Potency": "inconclusive: 8.91 µM [inhibitor, single point]"}, {"smiles": "COc1cc(NC(=O)CSCc2ccc(Cl)cc2Cl)c(C(=O)O)cc1OC", "Potency": "inconclusive: 39.8 µM [inhibitor, single point]"}, {"smiles": "N#CCCn1c(=O)c(-c2cccs2)nc2cnc(Oc3cccc(Cl)c3)nc21", "Potency": "inconclusive: 22.4 µM [inhibitor, partial curve]"}, {"smiles": "Cc1ccc(C(=O)O)cc1-c1ccc(C=C2C(=O)c3ccccc3C2=O)o1", "Potency": "inconclusive: 39.8 µM [inhibitor, single point]"}, {"smiles": "CCc1ccc(NC(=S)N2CCN(c3cccc(OC)c3)CC2)cc1", "Potency": "inconclusive: 39.8 µM [inhibitor, single point]"}, {"smiles": "COc1ccc2nc(-c3ccc(N)cc3)[nH]c2c1", "activity change, negative = inhibition": "inactive: -4.58%"}, {"smiles": "OCC1CCCN1C(=S)Nc1ccccc1", "note": "(stereo unspecified)", "Potency": "inconclusive: 0.562 µM [inhibitor, full curve, poor fit]"}, {"smiles": "Cc1ccc(C)c(NC(=O)CN(C)C(=O)C2CCN(C(=O)Nc3ccccc3)CC2)c1", "Potency": "inconclusive: 39.8 µM [inhibitor, single point]"}, {"smiles": "CCOC(=O)c1csc(N)c1-c1ccc([N+](=O)[O-])cc1", "Potency": "inconclusive: 20 µM [inhibitor, partial curve]"}, {"smiles": "Oc1ccc(C=Nc2ccccc2-c2nc3ccccc3[nH]2)cc1", "Potency": "inconclusive: 12.6 µM [inhibitor, partial curve, poor fit]"}, {"smiles": "CCCCSc1ncnc2[nH]ncc12", "Potency": "inconclusive: 39.8 µM [inhibitor, single point]"}, {"smiles": "CC(=O)Oc1c(-c2ccc(Br)o2)oc2ccccc2c1=O", "activity change, negative = inhibition": "inactive: -4.36%"}, {"smiles": "Cc1csc(N/N=C/c2ccccn2)n1", "activity change, negative = inhibition": "inactive: -4.23%"}, {"smiles": "CSc1ccc(/C=C/C(=O)N2CCN(c3ccccn3)CC2)cc1", "Potency": "inconclusive: 1 µM [inhibitor, full curve]"}, {"smiles": "O=C(CN(Cc1ccco1)C(=O)c1ccc(Cl)cc1)Nc1c(Cl)cc(Cl)cc1Cl", "activity change, negative = inhibition": "inactive: 3.4%"}, {"smiles": "O=C(NCc1ccccc1)C(=O)NCC1OCCCN1S(=O)(=O)c1cccs1", "note": "(stereo unspecified)", "Potency": "inconclusive: 25.1 µM [inhibitor, single point]"}, {"smiles": "CC(NC(=O)c1ccco1)C(=O)N1CCN(c2cccc(C(F)(F)F)c2)CC1", "note": "(stereo unspecified)", "activity change, negative = inhibition": "inactive: 0.714%"}, {"smiles": "C[C@H](NC(=O)c1ncn(Cc2ccccc2)c1C(=O)N[C@@H](C)c1ccccc1)c1ccccc1", "Potency": "inconclusive: 31.6 µM [inhibitor, single point]"}, {"smiles": "COc1ccc(C(=S)N2CCOCC2)cc1OS(=O)(=O)c1ccc(Br)cc1", "Potency": "inconclusive: 3.16 µM [inhibitor, partial curve]"}]}]}
